{"source": "PubChem BioAssay AID504808 (Drosophila RNAi Screening Center, 2011)", "aim": "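Fly genes required to hold E2F transcription in check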 (primary screen)", "cells": "Drosophila S2 cells", "reagent": "long dsRNA against Drosophila genes", "measurement": "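Firefly luciferase driven by E2F sites, normalised to Renilla luciferase on the same minimal promoter, measured by plate reader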", "reading the numbers": "E2F firefly: higher = more E2F reporter activity; Renilla normaliser: higher = more normaliser reporter signal", "active means": "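a knock-down counted as active when the firefly/Renilla E2F signal rose above 50%, a threshold chosen arbitrarily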", "note": "In all, the deposit lists about 21,000 reagents; shown is a random part of those with a known target gene and a result. In the full data, 18 (0.084%) were called active. 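Raw counts without plate normalisation, one of two replicates; the ratio scores behind the calls were not deposited.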 A number with no mark means an inactive call. The numbers tell different reagents against one gene apart. Names joined by + are all predicted targets of the reagent. No sequences are given here. The record does not give: the amount of reagent, the time to read-out."}
{"target gene":"CG3492 (GeneID 37902)","reagent no.":1,"E2F firefly, rep 1":83875,"Renilla normaliser, rep 1":3344}
{"target gene":"CG9372 (GeneID 40137)","reagent no.":1,"E2F firefly, rep 1":1.14e5,"Renilla normaliser, rep 1":6446}
{"target gene":"CG15185 (GeneID 40798)","reagent no.":1,"E2F firefly, rep 1":1.37e5,"Renilla normaliser, rep 1":6035}
{"target gene":"Tim9a (GeneID 32294)","reagent no.":1,"E2F firefly, rep 1":1.00e5,"Renilla normaliser, rep 1":5605}
{"target gene":"PGAP5 (GeneID 34116)","reagent no.":1,"E2F firefly, rep 1":1.60e5,"Renilla normaliser, rep 1":4834}
{"target gene":"CG7017 (GeneID 40213)","reagent no.":1,"E2F firefly, rep 1":98968,"Renilla normaliser, rep 1":4799}
{"target gene":"CG10286 (GeneID 40786)","reagent no.":1,"E2F firefly, rep 1":83928,"Renilla normaliser, rep 1":3695}
{"target gene":"msn (GeneID 44030)","reagent no.":1,"E2F firefly, rep 1":1.21e5,"Renilla normaliser, rep 1":3725}
{"target gene":"msn (GeneID 44030)","reagent no.":2,"E2F firefly, rep 1":90175,"Renilla normaliser, rep 1":4481}
{"target gene":"COX4 (GeneID 35279)","reagent no.":1,"E2F firefly, rep 1":84132,"Renilla normaliser, rep 1":3579}
{"target gene":"CG9988 (GeneID 43388)","reagent no.":1,"E2F firefly, rep 1":92701,"Renilla normaliser, rep 1":6384}
{"target gene":"Hex-A (GeneID 45875)","reagent no.":1,"E2F firefly, rep 1":1.26e5,"Renilla normaliser, rep 1":5879}
{"target gene":"CG6044 (GeneID 37558)","reagent no.":1,"E2F firefly, rep 1":96059,"Renilla normaliser, rep 1":3700}
{"target gene":"Poxm (GeneID 40990)","reagent no.":1,"E2F firefly, rep 1":1.46e5,"Renilla normaliser, rep 1":6874}
{"target gene":"lbe (GeneID 42542)","reagent no.":1,"E2F firefly, rep 1":1.44e5,"Renilla normaliser, rep 1":7514}
{"target gene":"mRpL52 (GeneID 35711)","reagent no.":1,"E2F firefly, rep 1":1.49e5,"Renilla normaliser, rep 1":5160}
{"target gene":"Ercc1 (GeneID 36654)","reagent no.":1,"E2F firefly, rep 1":2457,"Renilla normaliser, rep 1":214}
{"target gene":"CG12104 (GeneID 38187)","reagent no.":1,"E2F firefly, rep 1":71054,"Renilla normaliser, rep 1":3347}
{"target gene":"CG12299 (GeneID 34483)","reagent no.":1,"E2F firefly, rep 1":91740,"Renilla normaliser, rep 1":3417}
{"target gene":"Gcn2 (GeneID 43709)","reagent no.":1,"E2F firefly, rep 1":2002,"Renilla normaliser, rep 1":976}
{"target gene":"FASN1 (GeneID 33524)","reagent no.":1,"E2F firefly, rep 1":65798,"Renilla normaliser, rep 1":4003}
{"target gene":"GluRIB + CG42509 (retired record)","reagent no.":1,"E2F firefly, rep 1":96145,"Renilla normaliser, rep 1":4079}
{"target gene":"GluRIB + CG42509 (retired record)","reagent no.":2,"E2F firefly, rep 1":79494,"Renilla normaliser, rep 1":3126}
{"target gene":"Cks85A (GeneID 41034)","reagent no.":1,"E2F firefly, rep 1":1.28e5,"Renilla normaliser, rep 1":6564}
{"target gene":"kon (GeneID 35104)","reagent no.":1,"E2F firefly, rep 1":85503,"Renilla normaliser, rep 1":3348}
{"target gene":"Aldh7A1 (GeneID 40097)","reagent no.":1,"E2F firefly, rep 1":82147,"Renilla normaliser, rep 1":4171}
{"target gene":"RNaseX25 (GeneID 38885)","reagent no.":1,"E2F firefly, rep 1":66392,"Renilla normaliser, rep 1":3306}
{"target gene":"SREBP (GeneID 40155)","reagent no.":1,"E2F firefly, rep 1":1.29e5,"Renilla normaliser, rep 1":8095}

Reformatted: entries from further up
target gene | reagent no. | E2F firefly, rep 1 | Renilla normaliser, rep 1
CG9988 (GeneID 43388) | 1 | 92701 | 6384
Hex-A (GeneID 45875) | 1 | 1.26e5 | 5879
CG6044 (GeneID 37558) | 1 | 96059 | 3700
Poxm (GeneID 40990) | 1 | 1.46e5 | 6874
